Data published in publication PMC12627232 (MedComm, 2025).

Tested on: MDA-MB-231 cells
Experiment: Immunofluorescence of ac-H3
Type: cell-based, human
Settings: 1 μM SDFZ-8 treated MDA-MB-231 cells, 24 h
Description: Cells (10^5 cells per plate) were seeded in confocal dishes and incubated with drugs or DMSO (equal volume to experimental groups) for 24 h. The medium was removed, and cells were fixed with 4% polyoxymethylene solution for 30 min. The cells were treated with 0.2% Triton X‐100 for 10 min and 1% BSA for 1 h at room temperature. After that, cells were washed twice with TBST and incubated with anti‐H3 antibody (Cell Signal Technology; #13998) at 4°C overnight. When incubation finished, cells were washed five times with TBST and Cy3‐labeled goat anti‐rabbit IgG (Beyotime; #A0516) and DAPI solution (Solarbio) were added. After 1 h incubation and washing five times with TBST, cells were captured with Leica TCS SP8 super‐resolution laser scanning confocal microscope. The colocalization of ac‐H3 and DAPI was analyzed with ImageJ.

O=C(CCCCCCNC(=O)c1cc(OCCc2ccccc2)c2ccccc2n1)NO [SDFZ-8] was tested, and the “overlap R value of ac-H3 immunofluorescence and DAPI” value was 0.88.
